The target of experiment [1] is T1, human NPR-C (natriuretic peptide receptor C, clearance receptor), overexpressed on HEK293 cells (human) (UniProt P17342).
T1 sequence (looked up): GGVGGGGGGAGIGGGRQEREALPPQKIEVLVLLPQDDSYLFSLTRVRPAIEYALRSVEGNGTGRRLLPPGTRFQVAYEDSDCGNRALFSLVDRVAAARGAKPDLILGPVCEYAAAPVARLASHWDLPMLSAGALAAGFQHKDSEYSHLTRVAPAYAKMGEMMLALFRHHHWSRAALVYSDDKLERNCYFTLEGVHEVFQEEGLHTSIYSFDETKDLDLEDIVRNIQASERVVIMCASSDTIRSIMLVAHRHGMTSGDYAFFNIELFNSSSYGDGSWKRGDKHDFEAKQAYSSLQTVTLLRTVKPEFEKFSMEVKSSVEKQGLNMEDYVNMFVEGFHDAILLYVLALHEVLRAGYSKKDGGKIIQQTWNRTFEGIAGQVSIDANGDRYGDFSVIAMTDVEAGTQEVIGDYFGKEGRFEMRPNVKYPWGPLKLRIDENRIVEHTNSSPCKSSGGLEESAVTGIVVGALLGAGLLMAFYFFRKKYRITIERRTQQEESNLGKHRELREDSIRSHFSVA
The experiment can be described thus: PLAP activity bound to NPR-C-transfected HEK293 cells.

Experiment [2] has as its target T1, human NPR-C (natriuretic peptide receptor C, clearance receptor), overexpressed on HEK293 cells (human). Nature of the experiment: PLAP activity bound to transfected HEK293 cells (summary of the experiment).
The target is the same in experiment [3]. Nature of the experiment: competition of PLAP-Ostn binding to NPR-C (summary of the experiment).
Experiment [4] addresses T2, NPR-C on ATDC5 cells (mouse chondrogenic cell line) (mouse) (UniProt P70180).
T2 sequence (looked up): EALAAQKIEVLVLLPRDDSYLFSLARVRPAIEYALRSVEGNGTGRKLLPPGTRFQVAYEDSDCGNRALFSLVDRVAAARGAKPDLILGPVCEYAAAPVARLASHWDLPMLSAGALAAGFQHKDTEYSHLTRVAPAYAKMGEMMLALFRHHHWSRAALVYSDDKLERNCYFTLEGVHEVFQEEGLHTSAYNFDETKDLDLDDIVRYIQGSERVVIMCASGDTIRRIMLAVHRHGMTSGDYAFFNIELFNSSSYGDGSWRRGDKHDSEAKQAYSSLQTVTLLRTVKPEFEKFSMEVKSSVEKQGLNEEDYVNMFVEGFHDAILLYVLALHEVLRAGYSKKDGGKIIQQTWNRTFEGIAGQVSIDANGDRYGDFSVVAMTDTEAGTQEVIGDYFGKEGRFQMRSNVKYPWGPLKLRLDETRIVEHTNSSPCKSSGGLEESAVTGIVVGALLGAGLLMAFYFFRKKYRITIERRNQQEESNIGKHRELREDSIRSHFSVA
The experiment can be described thus: displacement of 125I-Ostn[83-133] from ATDC5 cells by cold peptide and C-ANF.

We go through three molecules from patent US20070049521A1.

These are yes or no findings as the source states them, for the method shown. Some binding calls cover weakened binding; strength is not graded here. For some of these results: Sequences can lack the tags named with a protein.

B1: PLAP-Ostn fusion protein (N-terminal secreted placental alkaline phosphatase moiety linked to mouse Ostn[29-130]) (protein)
chain: DAAQPARRARRTYEAYVRSSGIIPVEEENPDFWNREAAEALGAAKKLQPAQTAAKNLIIFLGDGMGVSTVTAARILKGQKKDKLGPEIPLAMDRFPYVALSKTYNVDKHVPDSGATATAYLCGVKGNFQTIGLSAAARFNQCNTTRGNEVISVMNRAKKAGKSVGVVTTTRVQHASPAGTYAHTVNRNWYSDADVPASARQEGCQDIATQLISNMDIDVILGGGRKYMFPMGTPDPEYPDDYSQGGTRLDGKNLVQEWLAKRQGARYVWNRTELMQASLDPSVTHLMGLFEPGDMKYEIHRDSTLDPSLMEMTEAALRLLSRNPRGFFLFVEGGRIDHGHHESRAYRALTETIMFDDAIERAGQLTSEEDTLSLVTADHSHVFSFGGYPLRGSSIFGLAPGKARDRKAYTVLLYGNGPGYVLKDGARPDVTESESGSPEYRQQSAVPLDEETHAGEDVAVFARGPQAHLVHGVQEQTFIAHVMAFAACLEPYTACDLAPPAGTTDAAHPGYLDLASQEFGTASLQSPPTAREEKSATELSAKLLRLDDLVSLENDVFETKKKRSFSGFGSPLDRLSAGSVEHRGKQRKAVDHSKKRFGIPMDRIGRNRLSSSRG
As for B1, the binding result in experiment [1] and in experiment [2] was “binds” in each case.

B2: mouse amidated Ostn[107-129] synthetic C-terminal peptide (peptide)
peptide: YDHSKKRFGIPMDRIGRNRLSNSR
modifications: amidated (C-terminal amide)
For the molecule B2, in experiment [3], the binding result is on record as “binds”.

B3: human Ostn[83-133] (cold) (peptide)
peptide: SFSGFGSPLDRLSAGSVDHKGKQRKVVDHPKRRFGIPMDRIGRNRLSNSRG
As to B3, in experiment [4], the binding entry is recorded as “binds”.
